1 sequence from patent US20090018101 can be followed below.

Construct, isoform or probe ends are uncertain for at least one entry.

This data set deals with M.BcnIB (DNA cytosine-N4 methyltransferase). Put plainly: activity assay. The following applies: N4-dC group transfer by HPLC/ESI-MS with cofactors 3 and 5, not 4 or 6; 37 C, EDTA; purified recombinant protein.

As to “CATTACGCGCCGGGTCCTGGCTAT (double strand) [duplex III.IV (= V.VI)]”, the “activity on this sequence” value was “active”.
